Compound in the assay: Nc1nc2c(ncn2[C@@H]2O[C@H](COP(=O)(O)OP(=O)(O)OP(=O)(O)O)[C@@H](O)[C@H]2O)c(=O)[nH]1 [guanosine triphosphate]
Description: NP40-soluble protein abundance relative to vehicle (solubility fold change) (ratio); higher = more soluble protein in presence of GTP. Put shortly: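 Jurkat crude lysate (Dounce-homogenised) was treated with eight concentrations from 0.1 to 10 mM for 10 min at room temperature, then 3 min at 37 °C. It was solubilised with 0.8% NP40 and benzonase (60 min, 4 °C) and ultracentrifuged, and the supernatant was TMT-labelled for LC-MS/MS. Intensities were vsn-normalised, and the value is the fold change against the NP40-processed vehicle per replicate, from three independent experiments.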

Sequences of proteins named here, by UniProt entry; tags and fusion partners are left off. A change or cut given only in a name is not applied to a line headed by its entry.
UniProt Q9NZJ4: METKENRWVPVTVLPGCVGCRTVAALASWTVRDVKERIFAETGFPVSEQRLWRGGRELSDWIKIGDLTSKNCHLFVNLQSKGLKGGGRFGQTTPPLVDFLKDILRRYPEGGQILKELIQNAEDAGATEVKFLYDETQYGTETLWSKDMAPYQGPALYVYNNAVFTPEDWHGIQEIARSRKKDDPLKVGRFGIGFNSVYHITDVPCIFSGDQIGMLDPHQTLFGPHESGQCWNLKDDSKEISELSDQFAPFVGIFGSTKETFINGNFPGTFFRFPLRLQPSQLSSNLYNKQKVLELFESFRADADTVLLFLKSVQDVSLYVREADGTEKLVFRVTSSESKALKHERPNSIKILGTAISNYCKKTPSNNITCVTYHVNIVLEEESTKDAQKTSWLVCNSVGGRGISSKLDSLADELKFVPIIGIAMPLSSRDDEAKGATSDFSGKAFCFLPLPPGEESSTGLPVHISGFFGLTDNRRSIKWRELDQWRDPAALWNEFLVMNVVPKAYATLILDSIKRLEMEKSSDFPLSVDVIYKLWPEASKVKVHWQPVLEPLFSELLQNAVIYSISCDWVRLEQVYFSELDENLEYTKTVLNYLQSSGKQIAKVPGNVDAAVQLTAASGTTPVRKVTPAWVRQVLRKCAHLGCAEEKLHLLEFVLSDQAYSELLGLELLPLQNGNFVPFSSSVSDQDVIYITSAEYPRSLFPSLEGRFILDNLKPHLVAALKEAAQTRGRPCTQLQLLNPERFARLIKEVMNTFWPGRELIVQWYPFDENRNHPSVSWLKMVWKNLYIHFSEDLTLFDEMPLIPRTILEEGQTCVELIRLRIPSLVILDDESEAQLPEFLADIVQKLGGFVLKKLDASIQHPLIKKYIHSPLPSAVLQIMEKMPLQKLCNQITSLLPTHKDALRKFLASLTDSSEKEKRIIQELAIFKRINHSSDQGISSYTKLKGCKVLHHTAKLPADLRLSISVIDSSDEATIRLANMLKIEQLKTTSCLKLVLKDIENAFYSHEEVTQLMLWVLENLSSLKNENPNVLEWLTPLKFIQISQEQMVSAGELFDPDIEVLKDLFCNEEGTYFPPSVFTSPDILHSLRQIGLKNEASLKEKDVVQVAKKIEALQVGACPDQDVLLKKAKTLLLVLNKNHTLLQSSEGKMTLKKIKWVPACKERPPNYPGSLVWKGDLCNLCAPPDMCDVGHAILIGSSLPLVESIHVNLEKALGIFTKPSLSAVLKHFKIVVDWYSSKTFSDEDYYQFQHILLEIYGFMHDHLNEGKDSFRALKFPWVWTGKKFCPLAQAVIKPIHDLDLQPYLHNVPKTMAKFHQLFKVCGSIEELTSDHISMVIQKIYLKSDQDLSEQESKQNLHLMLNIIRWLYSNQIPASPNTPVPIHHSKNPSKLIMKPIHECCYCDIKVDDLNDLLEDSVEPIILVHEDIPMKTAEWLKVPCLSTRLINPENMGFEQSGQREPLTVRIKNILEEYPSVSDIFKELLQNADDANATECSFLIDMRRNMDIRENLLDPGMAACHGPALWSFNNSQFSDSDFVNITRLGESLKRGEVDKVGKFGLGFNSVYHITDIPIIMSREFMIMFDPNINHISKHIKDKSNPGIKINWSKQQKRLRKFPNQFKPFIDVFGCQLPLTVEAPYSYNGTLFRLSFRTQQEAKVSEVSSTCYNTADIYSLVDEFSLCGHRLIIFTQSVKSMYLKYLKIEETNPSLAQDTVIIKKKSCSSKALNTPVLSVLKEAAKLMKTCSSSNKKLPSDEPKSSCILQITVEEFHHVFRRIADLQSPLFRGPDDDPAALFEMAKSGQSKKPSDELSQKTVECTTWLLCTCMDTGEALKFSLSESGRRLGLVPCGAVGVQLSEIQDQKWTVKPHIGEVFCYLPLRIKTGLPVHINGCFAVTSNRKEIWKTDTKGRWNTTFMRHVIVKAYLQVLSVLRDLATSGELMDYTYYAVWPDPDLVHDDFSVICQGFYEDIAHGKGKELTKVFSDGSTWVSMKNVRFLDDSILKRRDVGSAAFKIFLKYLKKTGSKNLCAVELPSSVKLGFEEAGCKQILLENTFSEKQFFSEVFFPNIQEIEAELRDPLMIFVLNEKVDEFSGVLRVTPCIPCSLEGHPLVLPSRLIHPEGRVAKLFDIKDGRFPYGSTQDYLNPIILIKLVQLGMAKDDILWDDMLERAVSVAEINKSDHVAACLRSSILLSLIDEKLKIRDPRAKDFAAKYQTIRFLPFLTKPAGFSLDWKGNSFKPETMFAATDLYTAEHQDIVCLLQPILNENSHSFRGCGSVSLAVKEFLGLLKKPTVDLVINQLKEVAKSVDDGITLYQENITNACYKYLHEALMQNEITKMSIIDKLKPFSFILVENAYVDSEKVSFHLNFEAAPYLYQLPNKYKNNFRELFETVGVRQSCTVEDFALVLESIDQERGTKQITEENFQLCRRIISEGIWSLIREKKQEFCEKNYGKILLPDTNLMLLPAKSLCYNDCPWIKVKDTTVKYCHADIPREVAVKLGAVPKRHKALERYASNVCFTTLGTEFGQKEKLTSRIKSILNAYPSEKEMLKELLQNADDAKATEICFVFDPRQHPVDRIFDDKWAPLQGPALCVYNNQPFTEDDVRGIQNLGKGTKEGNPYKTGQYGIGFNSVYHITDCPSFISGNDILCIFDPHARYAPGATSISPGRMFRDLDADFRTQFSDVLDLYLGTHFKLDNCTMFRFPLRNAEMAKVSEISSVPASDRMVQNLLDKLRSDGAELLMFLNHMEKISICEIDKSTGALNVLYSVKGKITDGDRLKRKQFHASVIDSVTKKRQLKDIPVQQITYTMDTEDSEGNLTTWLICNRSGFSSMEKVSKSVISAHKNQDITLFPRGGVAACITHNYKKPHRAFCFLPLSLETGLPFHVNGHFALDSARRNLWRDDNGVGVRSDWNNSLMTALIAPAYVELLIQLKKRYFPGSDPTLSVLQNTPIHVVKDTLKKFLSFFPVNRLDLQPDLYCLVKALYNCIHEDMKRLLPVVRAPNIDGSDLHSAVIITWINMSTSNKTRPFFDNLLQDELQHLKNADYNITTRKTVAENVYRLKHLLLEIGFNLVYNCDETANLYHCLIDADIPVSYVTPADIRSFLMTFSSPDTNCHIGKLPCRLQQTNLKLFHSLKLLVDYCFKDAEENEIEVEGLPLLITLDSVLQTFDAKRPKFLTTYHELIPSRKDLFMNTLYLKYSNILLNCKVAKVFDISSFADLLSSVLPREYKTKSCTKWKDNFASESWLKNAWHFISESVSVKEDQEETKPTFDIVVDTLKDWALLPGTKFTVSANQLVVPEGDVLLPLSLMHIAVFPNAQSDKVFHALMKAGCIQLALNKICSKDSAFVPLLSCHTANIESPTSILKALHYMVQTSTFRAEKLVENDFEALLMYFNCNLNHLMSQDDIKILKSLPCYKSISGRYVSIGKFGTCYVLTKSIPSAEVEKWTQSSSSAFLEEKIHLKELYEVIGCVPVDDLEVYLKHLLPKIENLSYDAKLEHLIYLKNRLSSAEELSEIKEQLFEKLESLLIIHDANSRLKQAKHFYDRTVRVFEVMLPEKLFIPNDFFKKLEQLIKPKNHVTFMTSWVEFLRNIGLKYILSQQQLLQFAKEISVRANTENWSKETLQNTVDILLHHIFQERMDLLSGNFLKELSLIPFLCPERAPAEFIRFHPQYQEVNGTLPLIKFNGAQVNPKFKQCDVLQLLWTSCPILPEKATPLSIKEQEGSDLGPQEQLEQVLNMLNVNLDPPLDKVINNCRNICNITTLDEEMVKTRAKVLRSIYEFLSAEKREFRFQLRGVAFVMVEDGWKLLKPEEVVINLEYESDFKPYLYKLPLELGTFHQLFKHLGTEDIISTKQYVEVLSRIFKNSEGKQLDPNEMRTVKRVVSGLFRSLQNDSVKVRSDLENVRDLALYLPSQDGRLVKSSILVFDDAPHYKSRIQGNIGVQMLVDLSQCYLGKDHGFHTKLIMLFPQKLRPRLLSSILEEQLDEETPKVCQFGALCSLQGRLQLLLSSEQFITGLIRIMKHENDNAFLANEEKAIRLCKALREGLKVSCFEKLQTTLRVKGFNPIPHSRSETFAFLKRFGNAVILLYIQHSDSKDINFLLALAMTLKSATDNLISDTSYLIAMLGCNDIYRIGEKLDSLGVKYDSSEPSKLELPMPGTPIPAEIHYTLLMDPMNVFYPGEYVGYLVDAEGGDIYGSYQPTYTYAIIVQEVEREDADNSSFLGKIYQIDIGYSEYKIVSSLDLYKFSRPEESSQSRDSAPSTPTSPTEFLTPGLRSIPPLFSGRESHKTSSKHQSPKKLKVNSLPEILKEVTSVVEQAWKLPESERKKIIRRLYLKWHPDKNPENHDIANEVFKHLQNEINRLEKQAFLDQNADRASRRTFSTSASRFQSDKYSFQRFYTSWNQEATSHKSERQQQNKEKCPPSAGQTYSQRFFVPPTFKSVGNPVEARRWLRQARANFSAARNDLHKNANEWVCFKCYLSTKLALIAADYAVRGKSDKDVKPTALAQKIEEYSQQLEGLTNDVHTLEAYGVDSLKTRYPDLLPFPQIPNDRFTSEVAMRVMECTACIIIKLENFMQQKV
UniProt Q9UBS4: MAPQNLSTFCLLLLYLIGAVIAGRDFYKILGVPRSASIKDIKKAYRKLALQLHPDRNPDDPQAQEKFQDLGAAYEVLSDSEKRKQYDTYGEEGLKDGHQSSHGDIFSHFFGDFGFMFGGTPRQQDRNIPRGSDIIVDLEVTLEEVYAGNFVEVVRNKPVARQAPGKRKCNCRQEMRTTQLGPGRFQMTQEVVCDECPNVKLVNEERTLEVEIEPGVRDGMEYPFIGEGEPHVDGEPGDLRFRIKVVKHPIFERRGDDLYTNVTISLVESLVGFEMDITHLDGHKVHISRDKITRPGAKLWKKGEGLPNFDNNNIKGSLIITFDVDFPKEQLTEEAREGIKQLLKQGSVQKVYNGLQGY
UniProt Q9UL15: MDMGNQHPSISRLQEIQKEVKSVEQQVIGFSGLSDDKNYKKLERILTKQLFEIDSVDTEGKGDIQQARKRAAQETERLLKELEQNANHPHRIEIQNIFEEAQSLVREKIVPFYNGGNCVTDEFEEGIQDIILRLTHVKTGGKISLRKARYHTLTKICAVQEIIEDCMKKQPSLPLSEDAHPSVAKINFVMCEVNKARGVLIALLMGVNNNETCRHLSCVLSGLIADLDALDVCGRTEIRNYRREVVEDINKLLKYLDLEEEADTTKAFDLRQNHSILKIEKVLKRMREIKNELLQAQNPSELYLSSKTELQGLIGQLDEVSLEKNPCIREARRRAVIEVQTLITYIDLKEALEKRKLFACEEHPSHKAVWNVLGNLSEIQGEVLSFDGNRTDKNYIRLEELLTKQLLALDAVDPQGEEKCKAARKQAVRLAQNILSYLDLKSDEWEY
UniProt Q9NWZ5: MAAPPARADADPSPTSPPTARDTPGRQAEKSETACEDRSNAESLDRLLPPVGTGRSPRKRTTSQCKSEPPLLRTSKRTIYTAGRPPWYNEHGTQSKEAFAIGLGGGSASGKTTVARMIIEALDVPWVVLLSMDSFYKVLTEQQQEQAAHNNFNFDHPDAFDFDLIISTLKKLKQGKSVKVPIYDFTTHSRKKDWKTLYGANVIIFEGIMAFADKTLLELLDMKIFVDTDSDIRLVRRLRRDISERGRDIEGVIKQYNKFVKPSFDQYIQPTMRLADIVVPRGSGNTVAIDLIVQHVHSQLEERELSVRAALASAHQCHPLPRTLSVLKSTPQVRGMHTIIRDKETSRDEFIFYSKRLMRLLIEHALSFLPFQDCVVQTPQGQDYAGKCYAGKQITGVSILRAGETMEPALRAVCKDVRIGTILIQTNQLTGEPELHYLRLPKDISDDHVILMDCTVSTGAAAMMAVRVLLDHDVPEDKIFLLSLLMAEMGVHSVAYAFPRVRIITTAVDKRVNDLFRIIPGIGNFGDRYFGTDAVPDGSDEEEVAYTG
UniProt Q9UIV1, whole entry: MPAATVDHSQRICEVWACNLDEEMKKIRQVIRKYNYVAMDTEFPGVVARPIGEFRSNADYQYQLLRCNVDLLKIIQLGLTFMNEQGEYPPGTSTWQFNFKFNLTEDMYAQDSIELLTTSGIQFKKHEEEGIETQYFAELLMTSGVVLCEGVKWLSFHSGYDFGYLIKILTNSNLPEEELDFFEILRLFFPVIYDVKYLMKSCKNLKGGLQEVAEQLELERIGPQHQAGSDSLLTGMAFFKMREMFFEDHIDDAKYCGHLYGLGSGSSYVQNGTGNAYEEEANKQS
UniProt Q9NWT6: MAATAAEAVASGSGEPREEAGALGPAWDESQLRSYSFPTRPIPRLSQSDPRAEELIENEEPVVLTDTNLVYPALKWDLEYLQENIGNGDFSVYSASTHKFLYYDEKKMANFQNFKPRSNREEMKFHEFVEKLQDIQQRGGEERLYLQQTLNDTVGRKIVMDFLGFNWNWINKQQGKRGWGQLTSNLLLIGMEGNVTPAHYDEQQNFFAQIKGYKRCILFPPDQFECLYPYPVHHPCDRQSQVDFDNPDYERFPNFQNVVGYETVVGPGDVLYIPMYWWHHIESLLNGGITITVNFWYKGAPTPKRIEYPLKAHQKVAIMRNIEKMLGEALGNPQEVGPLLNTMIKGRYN

± gives the standard deviation of the averaged measurements. This is one part of the list.

As for UniProt Q9NZJ4 and related entries, the NP40-soluble protein abundance reads like this: (concentration: 0.1mM) 1.06 ± 0.12; (concentration: 0.5mM) 1.09 ± 0.091; (concentration: 1mM) 1.03 ± 0.062; (concentration: 2mM) 1.06 ± 0.13; (concentration: 4mM) 1.05 ± 0.11; (concentration: 6mM) 1.04 ± 0.06. In addition, the NP40-soluble protein abundance (concentration: 8mM) is 0.981 ± 0.069 and the NP40-soluble protein abundance (concentration: 10mM) was determined as 0.957 ± 0.087.

Consider UniProt Q9NVM9, for which the NP40-soluble protein abundance by setting is: (concentration: 0.1mM) 1.028 ± 0.01; (concentration: 0.5mM) 1.05 ± 0.041; (concentration: 1mM) 1.005 ± 0.0071; (concentration: 2mM) 1.04 ± 0.034; (concentration: 4mM) 1.06 ± 0.023; (concentration: 6mM) 1.07 ± 0.036. The NP40-soluble protein abundance runs as follows: (concentration: 8mM) 1.09 ± 0.063; (concentration: 10mM) 1.06 ± 0.043.

DNAJB11 (UniProt Q9UBS4): the NP40-soluble protein abundance by setting is: (concentration: 0.1mM) 1.01 ± 0.027; (concentration: 0.5mM) 1.02 ± 0.048; (concentration: 1mM) 1.03 ± 0.059; (concentration: 2mM) 1 ± 0.048; (concentration: 4mM) 1.01 ± 0.051; (concentration: 6mM) 1.02 ± 0.046. Further, the NP40-soluble protein abundance (concentration: 8mM) was determined as 1.005 ± 0.0044 and the NP40-soluble protein abundance (concentration: 10mM) came to 0.982 ± 0.029.

Turning to UniProt Q9UJY5 and related entries, the NP40-soluble protein abundance came to 0.918 ± 0.065 (concentration: 0.1mM); 0.944 ± 0.1 (concentration: 0.5mM); 0.955 ± 0.071 (concentration: 1mM); 0.921 ± 0.12 (concentration: 2mM); 0.893 ± 0.086 (concentration: 4mM); 0.907 ± 0.1 (concentration: 6mM). Moreover, the NP40-soluble protein abundance reads like this: (concentration: 8mM) 0.929 ± 0.076; (concentration: 10mM) 0.912 ± 0.09.

Consider UniProt Q9P287 and related entries, for which the NP40-soluble protein abundance is, setting by setting: (concentration: 0.1mM) 1.03 ± 0.026; (concentration: 0.5mM) 0.973 ± 0.032; (concentration: 1mM) 0.971 ± 0.066; (concentration: 2mM) 0.953 ± 0.059; (concentration: 4mM) 0.99 ± 0.083; (concentration: 6mM) 0.913 ± 0.069. The NP40-soluble protein abundance (concentration: 8mM) stood at 0.943 ± 0.058 and the NP40-soluble protein abundance (concentration: 10mM) is 0.946 ± 0.075.

As for UniProt Q9UK61 and related entries, the NP40-soluble protein abundance runs as follows: (concentration: 0.1mM) 1.06 ± 0.04; (concentration: 0.5mM) 1.03 ± 0.022; (concentration: 1mM) 1.045 ± 0.01; (concentration: 2mM) 1.06 ± 0.032; (concentration: 4mM) 1.08 ± 0.083; (concentration: 6mM) 1.1 ± 0.067. Further, the NP40-soluble protein abundance by setting is: (concentration: 8mM) 1.13 ± 0.1; (concentration: 10mM) 1.12 ± 0.09.

With UniProt Q9UL15 and related entries, the NP40-soluble protein abundance was 0.957 ± 0.068 (concentration: 0.1mM); 0.945 ± 0.052 (concentration: 0.5mM); 0.932 ± 0.043 (concentration: 1mM); 0.939 ± 0.044 (concentration: 2mM); 0.881 ± 0.025 (concentration: 4mM); 0.907 ± 0.084 (concentration: 6mM). Besides, the NP40-soluble protein abundance (concentration: 8mM) was 0.857 ± 0.052 and the NP40-soluble protein abundance (concentration: 10mM) was 0.877 ± 0.056.

Regarding ADD3 (UniProt Q9UEY8), the NP40-soluble protein abundance is 1.01 ± 0.022 (concentration: 0.1mM); 1.04 ± 0.031 (concentration: 0.5mM); 1.014 ± 0.0023 (concentration: 1mM); 1.03 ± 0.021 (concentration: 2mM); 1.01 ± 0.024 (concentration: 4mM); 1.01 ± 0.012 (concentration: 6mM). The NP40-soluble protein abundance came out at 1.02 ± 0.012 (concentration: 8mM) and 1.01 ± 0.012 (concentration: 10mM).

For the target UniProt Q9UKA9 and related entries, the NP40-soluble protein abundance turned out to be 1.04 ± 0.021 (concentration: 0.1mM); 0.985 ± 0.025 (concentration: 0.5mM); 1.01 ± 0.014 (concentration: 1mM); 0.989 ± 0.045 (concentration: 2mM); 0.947 ± 0.051 (concentration: 4mM); 0.955 ± 0.036 (concentration: 6mM). For the same target, the NP40-soluble protein abundance reads like this: (concentration: 8mM) 0.963 ± 0.029; (concentration: 10mM) 0.906 ± 0.027.

UniProt Q9NWZ5 and related entries: the NP40-soluble protein abundance is 1.08 ± 0.03 (concentration: 0.1mM); 1.01 ± 0.064 (concentration: 0.5mM); 1.07 ± 0.13 (concentration: 1mM); 1.03 ± 0.099 (concentration: 2mM); 1.08 ± 0.084 (concentration: 4mM); 0.984 ± 0.051 (concentration: 6mM). The NP40-soluble protein abundance by setting is: (concentration: 8mM) 1.05 ± 0.096; (concentration: 10mM) 0.992 ± 0.027.

As to UniProt Q9NWV8, the NP40-soluble protein abundance was found to be 0.903 ± 0.13 (concentration: 0.1mM); 0.927 ± 0.088 (concentration: 0.5mM); 0.899 ± 0.076 (concentration: 1mM); 0.899 ± 0.083 (concentration: 2mM); 0.91 ± 0.14 (concentration: 4mM); 0.918 ± 0.084 (concentration: 6mM). Moreover, the NP40-soluble protein abundance is, setting by setting: (concentration: 8mM) 0.924 ± 0.078; (concentration: 10mM) 0.953 ± 0.086.

Take DDX18 (UniProt Q9NVP1): the NP40-soluble protein abundance is, setting by setting: (concentration: 0.1mM) 1.084 ± 0.0038; (concentration: 0.5mM) 1.11 ± 0.024; (concentration: 1mM) 1.08 ± 0.021; (concentration: 2mM) 1.2 ± 0.071; (concentration: 4mM) 1.42 ± 0.057; (concentration: 6mM) 1.55 ± 0.061. Further, the NP40-soluble protein abundance stood at 1.69 ± 0.043 (concentration: 8mM) and 1.94 ± 0.066 (concentration: 10mM).

UniProt Q9P2K8 and related entries: the NP40-soluble protein abundance is, setting by setting: (concentration: 0.1mM) 1.05 ± 0.034; (concentration: 0.5mM) 1.08 ± 0.05; (concentration: 1mM) 0.99 ± 0.036; (concentration: 2mM) 1.04 ± 0.057; (concentration: 4mM) 1.03 ± 0.069; (concentration: 6mM) 1 ± 0.05. Moreover, the NP40-soluble protein abundance by setting is: (concentration: 8mM) 0.979 ± 0.028; (concentration: 10mM) 0.969 ± 0.049.

Regarding UniProt Q9NZM5, the NP40-soluble protein abundance runs as follows: (concentration: 0.1mM) 0.985 ± 0.053; (concentration: 0.5mM) 0.939 ± 0.14; (concentration: 1mM) 1.04 ± 0.083; (concentration: 2mM) 1.03 ± 0.17; (concentration: 4mM) 1.05 ± 0.16; (concentration: 6mM) 1.07 ± 0.21. The NP40-soluble protein abundance reads like this: (concentration: 8mM) 1.18 ± 0.17; (concentration: 10mM) 1.13 ± 0.093.

Turning to UniProt Q9UIV1 and related entries, the NP40-soluble protein abundance is 1.13 ± 0.2 (concentration: 0.1mM); 1.1 ± 0.091 (concentration: 0.5mM); 1.1 ± 0.17 (concentration: 1mM); 1.16 ± 0.27 (concentration: 2mM); 1.22 ± 0.22 (concentration: 4mM); 1.28 ± 0.31 (concentration: 6mM). Moreover, the NP40-soluble protein abundance was 1.07 ± 0.17 (concentration: 8mM) and 1.16 ± 0.19 (concentration: 10mM).

Consider HIF1AN (UniProt Q9NWT6), for which the NP40-soluble protein abundance reads like this: (concentration: 0.1mM) 0.991 ± 0.021; (concentration: 0.5mM) 1.04 ± 0.022; (concentration: 1mM) 0.928 ± 0.0097; (concentration: 2mM) 0.896 ± 0.025; (concentration: 4mM) 0.866 ± 0.053; (concentration: 6mM) 0.886 ± 0.063. Besides, the NP40-soluble protein abundance reads like this: (concentration: 8mM) 0.882 ± 0.038; (concentration: 10mM) 0.861 ± 0.042.
